Assay results as given in patent US20250269043A1, “TARGETED BIFUNCTIONAL DEGRADERS” (YALE UNIVERSITY, priority 2019, published 2025).
Not every detail of the peptide structures is certain; ends, links or a residue may be inferred. At least one structure is not confirmed: it was looked up by name or label, or the drawing left a doubt. Numbered stars: 1 amine (or outer) side, 2 acyl side, 3 side chain; on linkers, the order of the positions; unused ones are H or OH. Square brackets hold non-standard residues; d marks the D form. Peptide text beside a SMILES is read from it. Nle = CCCC[C@H](N)C(=O)O; CO = O=C([*:1])[*:2]

Test system: HepG2 cells
Test: Effect of protease inhibitors on degradation of endocytosed α-DNP antibody in HepG2 cells (50 kDa/25 kDa band ratio)
Settings: for inhibition of α-DNP antibody degradation (initial screening): FIG. 116; for inhibition of α-DNP antibody degradation (triplicate): 12 hours, each concentration in triplicate, ALLN 100 and 10 μM, FIG. 117
Excerpt: The ratiometric comparison of band intensity at 50 kDa divided by the intensity of the 25 kDa was used as a measure of α-DNP antibody degradation. As endocytosed α-DNP antibody is degraded in cells, this ratio decreases. […] Each ratiometric measurement is produced using only the protein fragments present in the cell lysate.
Protease inhibitors which inhibit α-DNP antibody degradation are expected to cause an accumulation of fluorescent intensity at 50 kDa and a decrease in fluorescent intensity at 25 kDa.
Next it was studied whether the inhibition of α-DNP antibody degradation by protease inhibitors was reproducible. Each protease inhibitor concentration was tested in triplicate in HepG2 cells (FIG. 117).
Pepstatin at a concentration 15 μM was included as a negative control.

[1] = leupeptin 20 and 80 μM, E64 50 and 10 μM, antipain 50 and 100 μM, aprotinin 400 or 800 nM, PMSF 100 or 500 μM, AEBSF 10 μM, ALLN 10 μM

CCCC[C@@H](C=O)NC(=O)[C@H](CC(C)C)NC(=O)[C@H](CC(C)C)NC(C)=O [ALLN, Ac-LLnL-CHO] (Ac-Leu-Leu-[Nle]-aldehyde)
inhibition of α-DNP antibody degradation (initial screening) (100 μM, 12 hour time point): strong inhibition
inhibition of α-DNP antibody degradation (triplicate): appeared effective
inhibition of α-DNP antibody degradation (initial screening) [1]: not active

CC(C)[C@H](NC(=O)[C@H](CCCNC(=N)N)NC(=O)N[C@@H](Cc1ccccc1)C(=O)O)C(=O)N[C@H](C=O)CCCNC(=N)N [Antipain] ({Phe-CO}-Arg-Val-Arg-aldehyde)
inhibition of α-DNP antibody degradation (triplicate): shown to inhibit
inhibition of α-DNP antibody degradation (initial screening) [1]: effective
